Assay results: PubChem BioAssay AID778 (Sanford-Burnham Center for Chemical Genomics, 2007)
The list shows a part of the results, in another mix than the full data. Activity calls are given as the source filed them.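 The calls were made as follows: active = CYP2C19 inhibition above a set limit at 5 µM in the primary screen (cut at about 50% in these data); inactive = the rest.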

By UniProt entry, the sequences of proteins in these tests, tags left out.
UniProt P33261, whole entry, looked up: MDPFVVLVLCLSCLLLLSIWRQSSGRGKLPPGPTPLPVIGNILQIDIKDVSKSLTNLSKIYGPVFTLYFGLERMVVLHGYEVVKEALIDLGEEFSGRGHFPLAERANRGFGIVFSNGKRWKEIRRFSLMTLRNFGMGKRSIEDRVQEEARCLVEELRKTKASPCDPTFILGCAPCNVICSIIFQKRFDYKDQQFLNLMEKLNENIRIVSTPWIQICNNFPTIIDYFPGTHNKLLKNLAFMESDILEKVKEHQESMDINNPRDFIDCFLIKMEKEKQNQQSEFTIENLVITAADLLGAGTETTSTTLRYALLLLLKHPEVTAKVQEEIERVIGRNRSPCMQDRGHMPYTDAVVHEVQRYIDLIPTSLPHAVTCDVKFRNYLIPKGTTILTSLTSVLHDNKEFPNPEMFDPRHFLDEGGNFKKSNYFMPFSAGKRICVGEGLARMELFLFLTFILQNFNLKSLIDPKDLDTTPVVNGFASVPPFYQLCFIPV

target: Cytochrome P450 2C19 (Homo sapiens) (UniProt P33261); experiment: blockers of cytochrome P450 2C19 activity – biochemical, luminescence, ADME assay, primary screen (AID 778); settings: CYP2C19 Supersomes, luciferin-H EGE luminescence, 30 min; at 5 µM; stronger effect = higher value;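 also: plate controls were negative control wells for no effect and 2.5 mM tranylcypromine positive control for full effect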

| Structure (SMILES) | inhibition |
| --- | --- |
| Nc1ccc(Sc2ccccc2CC(=O)O)cc1 | active: 54.5% |
